## Library screen at single concentrations

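Growth of Mycobacterium tuberculosis over 3 days (7H9 medium with glucose and tyloxapol); the read-out is not stated. Compounds at 50 µM. Higher reads as more growth inhibition (inferred: compounds with an IC50 in retests scored well above the rest). Of about 69,000 compounds tested this way, about 760 (1.1%) reached 50% or more in at least one test.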

Each number is a percent effect as filed.
The record does not define 0% and 100%; most values in the screen are far below 50% and negative numbers occur (in some assays of this library far below -100).
This is an unselected part of the compounds tested.
Two or more numbers in one place are separate tests of the same structure; such repeats can differ widely.

structure	percent effect
Cc1[nH]c2c(F)cccc2c1CC(=O)N1CCN(C2CCSCC2)CC1	-1.459 & 0.9084
Cc1cccc(N2CCC3(CCN(C(=O)c4cccnc4)CC3)C2)n1.O=C(O)C(F)(F)F.O=C(O)C(F)(F)F	-5.186
CCCC(=O)N1CCCN(C(=O)c2oc(C)nc2C)CC1	6.707
COC[C@]1(O)CCN(Cc2ccc(N(C)C)nc2)CC1(C)C	-20.49
O=C(c1ccsc1)N1CCc2c(COCc3ccncc3)cncc2C1	-4.057
[H][C@@]12CCN(C(=O)c3ccccc3)C[C@@]1([H])O[C@H](c1nnc(C3CC3)o1)C2	1.749
c1ccc2c(N3CCCC3Cn3cccn3)ncnc2c1 (centres unmarked)	12.74
O=C(NCCNc1ccc(C(F)(F)F)cn1)c1ccc(Br)cc1	36.76
N#Cc1c(F)cccc1N1CCN(S(=O)(=O)c2cccs2)CC1	8.994 & 21.41
CC(C)(C)C(NC(=O)CCS(C)(=O)=O)c1ccc(F)cc1F (centres unmarked)	0.4986 & -3.505
O=C(c1ccc(F)c(F)c1)N1CCCCC1c1nc[nH]n1 (centres unmarked)	10.53
Cc1ccsc1-c1nccn1CCN1CCCCC1CO (centres unmarked)	4.326
Cc1cc(C(C)NC(=O)c2cnc3onc(C)c3c2)c(C)o1 (centres unmarked)	12.11
CNC(=O)C1CCN(C(=O)CCn2cccn2)CC1	-15.98
Cn1cc(Br)c(=O)c(NS(=O)(=O)c2ccc(Cl)cc2)c1	-3.667 & 28.36
COCCN1CCC2(COCCN(C(=O)Cc3cccs3)C2)C1.O=C(O)C(F)(F)F (centres unmarked)	-46.31 & -0.8093
Cc1ccc(OC2(C(=O)O)CCN(C(=O)c3nc(C)oc3C)CC2)cn1	22.84
COC(=O)NCCCC(=O)NC1(c2cccc(Cl)c2)CC1	-11.75
CC(NC(=O)Cc1ccccc1F)C(=O)N1CCS(=O)(=O)CC1 (centres unmarked)	-3.77 & -11.93
NC(=O)C1CCN(Cc2cc3c(cc2Br)OCCO3)C1 (centres unmarked)	-5.376 & -33.93
Cc1nn(C)c(N(C)C)c1CNCc1ccc(C(=O)N(C)C)cc1	-2.946
CCS(=O)(=O)N1CCCCC1c1nc(CC(C)C)no1 (centres unmarked)	-10.95
Cc1ccc(NC(=O)N2CCOC(C)C2)cc1Cl (centres unmarked)	12.49
Cc1cc(C)n(NC(=O)c2ccccc2F)c(=O)c1	-21.93
Cc1ccc(Cl)cc1NS(=O)(=O)c1cc(C(N)=O)n(C)c1	10.24
CCn1cc(NC(=O)NCC(c2cccc(OC)c2)N(C)C)cn1 (centres unmarked)	-23.16
CCOCCN1C[C@H](c2cccc(OC)c2)[C@@H](N)C1	-1.959 & 3.552
CCOc1ncccc1Cn1cc(-c2cncnc2)nn1	18.12
O=C(O)C(F)(F)F.[H][C@]12CC[C@@]3(N=C(CC)NC3=O)[C@@]1([H])CN(Cc1ccc(Cl)cc1)C2	11.8
NC(=O)c1ccc(S(=O)(=O)NC(=O)COc2ccc3c(c2)CCC3)cc1	-2.587
c1ccc(C2CN(C3CC3)CC3(CCN(Cc4cscn4)CC3)C2)cc1 (centres unmarked)	66.67 & 48.16
Cc1cccc(O[C@H]2COCCN(C3CCC3)C2)n1	17.49 & 0.2639
[H][C@@]12CCN(c3ccc(C)nn3)C[C@]1(C(=O)N1CCCC1)CCO2	4.141
COCCc1noc(-c2ccc(-c3ccc(N)nc3)nc2)n1	-6.897
CC(=O)N1Cc2ccccc2C[C@H]1C(=O)Nc1ccccn1	3.677
[H][C@]12CCCCN1CCC[C@@]2(O)CNCC1(Cn2cccn2)CC1	21.53
CC(=O)N1CCC2(CCCN(Cc3ccc(Cl)c(C(F)(F)F)c3)C2)C1 (centres unmarked)	35.07
COCCN(C(=O)c1cnccn1)c1nc2c(s1)CCc1c-2cnn1C	28.92
CC(C)c1noc(CCC(=O)NCC2CCC(C(N)=O)CC2)n1 (centres unmarked)	25.53
CCCS(=O)(=O)N1CCC(NC(=O)c2ccc(Cl)s2)CC1	-4.505
COc1ccc(-n2cccn2)c(CN2CCC3(CCNCC3)C2)c1	10.4 & 1.307
O=C1COc2cc(C(=O)NS(=O)(=O)c3ccccc3F)ccc2N1	-13.14
CCCS(=O)(=O)NCCc1ncc(C)s1	28.03
COCc1noc(C2(c3ccc(F)cc3)CCC2)n1	-5.787 & 7.403
CCCOCCN1CCc2[nH]c(-c3ccc(OC)cc3)nc2C1	4.927 & -0.9914
CC(C(=O)N(Cc1ccccc1)CC(F)(F)F)S(C)(=O)=O (centres unmarked)	14.27
O=C(C(CNCc1cccnc1)c1ccccc1)N1CCOCC1 (centres unmarked)	13.23
O=C(O)C(F)(F)F.[H][C@@]12COC[C@]1(CN1CCOCC1)CN(S(C)(=O)=O)C2	4.418 & -9.034
CCCn1ccnc1CN1CCC(Oc2cccc(F)c2)(C(=O)O)CC1	23.17
Cc1nsc(NC(=O)N2CCC(C(C)(C)O)CC2)n1	-14.71
Cc1c(C(=O)NC2CCCOC2)nnn1-c1ccc(Cl)cc1F (centres unmarked)	8.262 & -11.22
CCc1ccc2c(C3CN(CC4CCC4)C3)ncn2c1.O=C(O)C(F)(F)F	33.75 & 14.52
Cc1nnc(NCc2ccccc2Cl)c(C#N)c1C	12.84
CCOc1cccc(CNC(=O)NCC(O)c2cccc(F)c2)c1 (centres unmarked)	18.8
Cc1cc(C(=O)NCC(=O)N2CCOCC2)nn1C(C)(C)C	15.2

For reference, 7 entries once more:

{"structure": "Cc1c(C(=O)NC2CCCOC2)nnn1-c1ccc(Cl)cc1F", "stereo": "centres unmarked", "percent effect": "8.262 & -11.22"}
{"structure": "CCOc1cccc(CNC(=O)NCC(O)c2cccc(F)c2)c1", "stereo": "centres unmarked", "percent effect": 18.8}
{"structure": "Cc1ccc(OC2(C(=O)O)CCN(C(=O)c3nc(C)oc3C)CC2)cn1", "percent effect": 22.84}
{"structure": "CCS(=O)(=O)N1CCCCC1c1nc(CC(C)C)no1", "stereo": "centres unmarked", "percent effect": -10.95}
{"structure": "N#Cc1c(F)cccc1N1CCN(S(=O)(=O)c2cccs2)CC1", "percent effect": "8.994 & 21.41"}
{"structure": "CCCOCCN1CCc2[nH]c(-c3ccc(OC)cc3)nc2C1", "percent effect": "4.927 & -0.9914"}
{"structure": "Cc1[nH]c2c(F)cccc2c1CC(=O)N1CCN(C2CCSCC2)CC1", "percent effect": "-1.459 & 0.9084"}

Data taken from ChEMBL document CHEMBL3988442, “University of Dundee, Small-Polar-MMV Screening Library” (2021).